Test results published in PubChem BioAssay AID290 (DTP/NCI, 2004).
The list shows only some results of the screen, not a fair sample: it gathers tests that were run many times, whatever their T/C, doses with no T/C, and many T/C values between a quarter and a half above the control. Other doses and runs of a compound stand elsewhere. T/C is the treated group as % of the vehicle group. Schedule codes are those of the source, read here as Q, the interval in days (D) or hours (H), X, the number of doses. Some doses have a count of surviving animals in place of a T/C: the source holds a T/C of zero for them, seemingly a mark for toxic or unscored doses. Some survivor counts are full or nearly so, which does not show that the dose was tolerated: the source hardly ever lists a survival T/C far under the control, and the zero likely stands for such cases as well. Survivors were counted at the toxicity check, usually on the fifth day, unless a day is given; later deaths do not show.

Tested on: mice, P1798 lymphosarcoma sc, survival or tumor weight T/C
Assay: NCI In Vivo Anticancer Drug Screen. Data for tumor model P1798 Lymphosarcoma (subcutaneous) in unknown mice
Procedure: The antitumor activity of compounds was measured in mice bearing transplantable tumors. Survival or tumor size were measured and the results are expressed as the measurement made in the treated group (T) divided by the measurement made in the vehicle treated control group (C). The tumor model used in this assay is P1798 Lymphosarcoma (subcutaneous) in unknown mice

In the case of `CS(=O)(=O)OCCCCOS(C)(=O)=O`, the survivor count (T/C endpoint: mean survival time, dose: 0.5 mg/kg/injection, schedule: Q01DX010 (ip), vehicle: methylcellulose (MC), higher T/C = longer survival) is reported as 10 of 10, the survivor count (T/C endpoint: mean survival time, dose: 1.0 mg/kg/injection, schedule: Q01DX010 (ip), vehicle: methylcellulose (MC), higher T/C = longer survival) is reported as 10 of 10 and the survivor count (T/C endpoint: mean survival time, dose: 2.0 mg/kg/injection, schedule: Q01DX010 (ip), vehicle: methylcellulose (MC), higher T/C = longer survival) is reported as 10 of 10. For the same compound, the survivor count (T/C endpoint: mean survival time, dose: 4.0 mg/kg/injection, schedule: Q01DX010 (ip), vehicle: methylcellulose (MC), higher T/C = longer survival) was 10 of 10 and the survivor count (T/C endpoint: mean tumor weight, dose: 32.0 mg/kg/injection, schedule: Q01DX010 (ip), vehicle: methylcellulose (MC), higher T/C = larger tumour) was 3 of 10.
`CN(C)c1nc(N(C)C)nc(N(C)C)n1` was tested, and the T/C (T/C endpoint: mean tumor weight, dose: 125.0 mg/kg/injection, schedule: Q01DX010 (ip), vehicle: carboxymethylcellulose (CMC), evaluated on day 14, higher T/C = larger tumour) was 126 % of control, the survivor count (T/C endpoint: mean tumor weight, dose: 1000.0 mg/kg/injection, schedule: Q01DX010 (ip), vehicle: carboxymethylcellulose (CMC), higher T/C = larger tumour) was 5 of 10 and the survivor count (T/C endpoint: mean tumor weight, dose: 2000.0 mg/kg/injection, schedule: Q01DX010 (ip), vehicle: carboxymethylcellulose (CMC), higher T/C = larger tumour) was 0 of 10.
With `CCC(=O)O[C@H]1CC[C@H]2[C@@H]3CCC4=CC(=O)CC[C@]4(C)[C@H]3CC[C@]12C` the T/C (T/C endpoint: mean tumor weight, dose: 60.0 mg/kg/injection, schedule: Q01DX010 (sc), vehicle: steroid suspending solution, evaluated on day 14, higher T/C = larger tumour) was 141 % of control, the T/C (T/C endpoint: mean tumor weight, dose: 300.0 mg/kg/injection, schedule: Q01DX010 (sc), vehicle: steroid suspending solution, evaluated on day 14, higher T/C = larger tumour) was 127 % of control and the T/C (T/C endpoint: mean tumor weight, dose: 1500.0 mg/kg/injection, schedule: Q01DX010 (sc), vehicle: steroid suspending solution, evaluated on day 14, higher T/C = larger tumour) was 133 % of control.
In the case of `COc1cc2c(c(OC)c1OC)-c1ccc(OC)c(=O)cc1[C@@H](NC(C)=O)CC2`, the survivor count (T/C endpoint: mean tumor weight, dose: 1.0 mg/kg/injection, schedule: Q01DX010 (ip), vehicle: saline, higher T/C = larger tumour) is reported as 0 of 10.
In the case of `OCC1OC(n2cnc3c(=S)nc[nH]c32)C(O)C1O` (centres undefined), the survivor count (T/C endpoint: mean tumor weight, dose: 62.5 mg/kg/injection, schedule: Q01DX010 (ip), vehicle: carboxymethylcellulose (CMC), higher T/C = larger tumour) is reported as 1 of 10, the survivor count (T/C endpoint: mean tumor weight, dose: 125.0 mg/kg/injection, schedule: Q01DX010 (ip), vehicle: carboxymethylcellulose (CMC), higher T/C = larger tumour) is reported as 0 of 10 and the survivor count (T/C endpoint: mean tumor weight, dose: 250.0 mg/kg/injection, schedule: Q01DX010 (ip), vehicle: carboxymethylcellulose (CMC), higher T/C = larger tumour) is reported as 0 of 10. For the same compound, the survivor count (T/C endpoint: mean tumor weight, dose: 500.0 mg/kg/injection, schedule: Q01DX010 (ip), vehicle: carboxymethylcellulose (CMC), higher T/C = larger tumour) was 0 of 10.
`CN(C)c1ccc(/C=C/c2ccnc3ccccc23)cc1` was tested, and the survivor count (T/C endpoint: mean tumor weight, dose: 31.2 mg/kg/injection, schedule: Q01DX010 (ip), vehicle: water, higher T/C = larger tumour) was 4 of 10, the survivor count (T/C endpoint: mean tumor weight, dose: 62.5 mg/kg/injection, schedule: Q01DX010 (ip), vehicle: water, higher T/C = larger tumour) was 0 of 10 and the survivor count (T/C endpoint: mean tumor weight, dose: 125.0 mg/kg/injection, schedule: Q01DX010 (ip), vehicle: water, higher T/C = larger tumour) was 0 of 10. For the same compound, the survivor count (T/C endpoint: mean tumor weight, dose: 250.0 mg/kg/injection, schedule: Q01DX010 (ip), vehicle: water, higher T/C = larger tumour) was 0 of 10.
`Nc1ncnc2[nH]ncc12` was tested, and the survivor count (T/C endpoint: mean tumor weight, dose: 25.0 mg/kg/injection, schedule: Q01DX010 (ip), vehicle: carboxymethylcellulose (CMC), higher T/C = larger tumour) was 0 of 10 and the survivor count (T/C endpoint: mean tumor weight, dose: 50.0 mg/kg/injection, schedule: Q01DX010 (ip), vehicle: carboxymethylcellulose (CMC), higher T/C = larger tumour) was 0 of 10.
For `C[C@]12CCC(=O)C=C1CC[C@H]1[C@@H]3CC[C@](O)(C(=O)CO)[C@@]3(C)C[C@H](O)[C@@]12F`, the T/C (T/C endpoint: mean tumor weight, dose: 10.0 mg/kg/injection, schedule: Q01DX015 (ip), vehicle: carboxymethylcellulose (CMC), run until all animals had died, higher T/C = larger tumour) was 140 % of control, the survivor count (T/C endpoint: mean tumor weight, dose: 14.0 mg/kg/injection, schedule: Q01DX011 (sc), vehicle: steroid suspending solution, higher T/C = larger tumour) was 4 of 10 and the survivor count (T/C endpoint: mean tumor weight, dose: 21.0 mg/kg/injection, schedule: Q01DX011 (sc), vehicle: steroid suspending solution, higher T/C = larger tumour) was 0 of 10. For the same compound, the survivor count (T/C endpoint: mean tumor weight, dose: 28.0 mg/kg/injection, schedule: Q01DX011 (sc), vehicle: steroid suspending solution, higher T/C = larger tumour) was 0 of 10.
With `Nc1nc(=S)c2ncn(C3OC(CO)C(O)C3O)c2[nH]1` (centres undefined) the survivor count (T/C endpoint: mean tumor weight, dose: 5.0 mg/kg/injection, schedule: Q01DX010 (ip), vehicle: carboxymethylcellulose (CMC), higher T/C = larger tumour) was 0 of 10, the survivor count (T/C endpoint: mean tumor weight, dose: 8.0 mg/kg/injection, schedule: Q01DX010 (ip), vehicle: saline, higher T/C = larger tumour) was 3 of 6 and the survivor count (T/C endpoint: mean tumor weight, dose: 16.0 mg/kg/injection, schedule: Q01DX010 (ip), vehicle: saline, higher T/C = larger tumour) was 1 of 6.
